Laboratory results as given in article doi:10.1101/2020.08.19.257287.
These are yes or no findings as the source states them, for the method shown. In cells and extracts the contact can be indirect. Sequences can lack the tags named with a protein.

Key:
Test in all cases: co-IP
FLAG-TPD54 (human) = FLAG-TPD54 (human) (UniProt O43399)
FLAG-TPD52 (human) = biological target: T1, FLAG-TPD52 (human) (UniProt P55327)
T1 sequence: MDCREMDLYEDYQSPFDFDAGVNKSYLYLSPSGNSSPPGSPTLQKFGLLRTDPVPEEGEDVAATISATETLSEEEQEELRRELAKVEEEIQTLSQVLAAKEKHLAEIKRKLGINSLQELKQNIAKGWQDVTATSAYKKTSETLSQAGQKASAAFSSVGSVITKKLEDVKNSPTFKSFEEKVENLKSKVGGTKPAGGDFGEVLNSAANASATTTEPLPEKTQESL

FLAG-TPD53 (human) = biological target: T2, FLAG-TPD53 (human) (UniProt Q16890)
T2 sequence: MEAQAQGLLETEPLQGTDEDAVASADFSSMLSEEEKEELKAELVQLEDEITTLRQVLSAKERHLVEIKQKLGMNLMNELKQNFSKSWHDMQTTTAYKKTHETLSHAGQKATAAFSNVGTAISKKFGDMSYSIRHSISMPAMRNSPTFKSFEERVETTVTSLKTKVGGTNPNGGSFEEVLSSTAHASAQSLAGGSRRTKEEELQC

binding (FLAG-TPD54 (human)): no binding
binding (FLAG-TPD52 (human)): no binding
binding (FLAG-TPD53 (human)): no binding
B1: GFP-FKBP-TPD54(L53P,L67P) (protein, UniProt O43399 1-206)
chain: MDSAGQDINLNSPNKGLLSDSMTDVPVDTGVAARTPAVEGLTEAEEEELRAEPTKVEEEIVTLRQVPAAKERHCGELKRRLGLSTLGELKQNLSRSWHDVQVSSAYVKTSEKLGEWNEKVTQSDLYKKTQETLSQAGQKTSAALSTVGSAISRKLGDMRNSATFKSFEDRVGTIKSKVVGDRENGSDNLPSSAGSGDKPLSDPAPF
